Primary screen of a compound library

Protein sequences, listed by entry. Tags and fused reporters are not part of them.
UniProt E9BF75, entry or part of it: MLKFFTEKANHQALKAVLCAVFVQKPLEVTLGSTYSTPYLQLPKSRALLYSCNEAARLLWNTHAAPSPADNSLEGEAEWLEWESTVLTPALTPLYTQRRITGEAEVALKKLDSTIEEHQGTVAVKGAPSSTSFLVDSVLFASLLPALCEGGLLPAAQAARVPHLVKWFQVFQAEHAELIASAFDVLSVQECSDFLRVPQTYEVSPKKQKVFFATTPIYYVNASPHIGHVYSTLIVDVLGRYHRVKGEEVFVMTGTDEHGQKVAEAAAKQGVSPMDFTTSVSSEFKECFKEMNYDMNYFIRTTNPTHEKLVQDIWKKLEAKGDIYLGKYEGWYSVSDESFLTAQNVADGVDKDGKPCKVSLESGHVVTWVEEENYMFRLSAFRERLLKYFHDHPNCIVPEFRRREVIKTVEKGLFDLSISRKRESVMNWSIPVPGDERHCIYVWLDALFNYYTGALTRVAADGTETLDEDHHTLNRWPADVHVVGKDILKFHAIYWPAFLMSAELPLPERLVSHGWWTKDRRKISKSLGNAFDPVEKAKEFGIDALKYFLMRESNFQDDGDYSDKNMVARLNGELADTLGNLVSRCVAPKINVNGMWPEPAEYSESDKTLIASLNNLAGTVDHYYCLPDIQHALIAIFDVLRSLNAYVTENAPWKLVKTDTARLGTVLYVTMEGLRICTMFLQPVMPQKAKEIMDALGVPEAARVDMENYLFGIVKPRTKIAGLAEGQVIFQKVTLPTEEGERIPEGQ

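Methionyl-tRNA synthetase (putative), Leishmania donovani (UniProt E9BF75). Primary screen of methionyl-tRNA synthetase; the read-out is not stated. The test concentration is not given. Values are per cent inhibition. Of about 68,000 compounds tested this way, about 24 (0.035%) reached 50% or more in at least one test.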

All values are in %.
The record does not define 0% and 100%; most values in the screen are far below 50% and negative numbers occur (in some assays of this library far below -100).
This is an unselected part of the compounds tested.

Compound	Inhibition
Cc1cccc(C(=O)N2CCCCC2c2nc(C)cs2)n1 (configuration not stated)	15.91
CC(C)(O)CSCCNCc1ccc(Cl)c2cccnc12	-25.64
Cn1cnc2c1C(COCc1ccccc1)N(Cc1cccnc1)CC2 (configuration not stated)	12.05
N#CCC(=O)NCc1nnc2n1CCN(Cc1ccco1)C2	5.797
Cc1noc(C)c1CN1C(=O)[C@H]2CC[C@@H]1CN(Cc1nccs1)C2	14.61
O=C(COc1ccccc1)NCC1CC1	-0.7752
CCN(C)CC1CCN(C(=O)Nc2ccc(-c3cc[nH]n3)cc2)C1 (configuration not stated)	0.2762
Cc1cc(NC(=O)NCC(O)c2ccc(F)c(F)c2)n(C)n1 (configuration not stated)	10.53
CSc1cccc(CNC(=O)[C@H]2CNC[C@H](C(=O)N3CCOCC3)C2)c1	5.627
CC(c1ccccc1)N(C)C(=O)CN1CCCc2cc(F)cc(F)c21 (configuration not stated)	-3.623
O[C@@]1(CNCCOc2ccccc2)CCCN2CCCC[C@@H]21	3.015
O=C(NCCC(=O)N1CCCCCCC1)c1ccoc1	22.95
CCc1nc(C)c(CNC(=O)CCCN2CCCCC2)s1	13.17
CC(=O)Nc1ccc(CNC(C)c2c(C)nn(C)c2C)cc1 (configuration not stated)	3.971
c1ccc2sc(N3CCCC4(CCOC4)C3)nc2c1 (configuration not stated)	15.79
O=C(NCCn1ccnc1)c1ccn(-c2cccc(F)c2)n1	7.087
CN(Cc1ccc(C#N)cc1)Cc1noc(C(C)(C)C)n1	4.724
Cc1ncc(CN2CCc3c(nc4cc(C5CC5)nn4c3O)C2)n1C	0.5319
CC(=O)N(C)[C@H]1CC[C@]2(CC1)CNC(=O)c1cc(C)ccc1O2	16.83
CCn1cc(-c2cc(-c3cc(CC(=O)O)cs3)nc(N)c2C#N)c(C)n1	8.75
Cc1cc(=O)n2ncnc2n1CC(O)COCc1ccccc1Cl (configuration not stated)	9.51
CC1CN(S(=O)(=O)c2ccc(F)cc2)c2cccnc2O1 (configuration not stated)	13.32
CCOc1ccccc1N(C)C(=O)c1ccc(Cl)cn1	6.593
Cc1ccccc1C(=O)Nc1cnn(CC(=O)NC2CCCC2)c1	22.5
CNC(=O)c1nc2c(s1)CCN(C(=O)c1cccc(OC)c1)CC2	13.33
CSCc1nc(CCNC(=O)C2CCCN(C(C)=O)C2)cs1 (configuration not stated)	13.9
CN(Cc1cnccn1)c1cncc(Br)c1	13.62
O=C(CCCc1ccccn1)NCC(O)c1ccccc1Cl (configuration not stated)	16.67
CN(C)C(=O)CN1CCCC1c1cccc(Cc2ccccc2F)n1 (configuration not stated)	33.33
CCOCCCC(=O)NC1CCN(C(C)c2ccccc2)CC1 (configuration not stated)	17.03
CN(Cc1nc(CS(C)(=O)=O)no1)c1ccccc1	18.54
O=C(Cn1cccn1)NCC1(c2ccccc2)CC1	2.083
CNC(=O)c1nnc2ccc(N3CCOCC3)cc2n1	-6.281
CCN(C)CC1CCN(C(=O)Nc2ccc(C)cc2)C1 (configuration not stated)	8.011
CN(CC(F)(F)F)C(=O)CNC(=O)Cc1cccc(O)c1	11.42
Cc1cc(C)c(-c2nc(-c3c(C)ncc4c3CCNC4)no2)o1	16.21
CC(NC(=O)CCCc1nc(C(C)(C)C)no1)c1nnc2n1CCC2 (configuration not stated)	5.694
Cc1cc(C)n(CC(=O)N2CCCCC2CCN2CCCC2=O)c(=O)n1 (configuration not stated)	-12.32
CN(C)CCN(C)c1cc(N2CCN(c3ccccn3)CC2)ncn1	6.389
CC(C)c1nn(C)c(N(C)C)c1CNCC(O)COc1ccccc1 (configuration not stated)	13.9
CNS(=O)(=O)CC(=O)N1CCCc2cc(Br)ccc21	5.988
COc1cc(NC(=O)N(C)CCC2CC2)ncn1	10.48
CC(C)Nc1nc2c(c(NC3CC3)n1)CCN(C1CCOCC1)CC2	9.783
CSCC(=O)NCc1cc(Br)ccc1OC(F)F	11.14
CN(C)Cc1nnc(C(=O)N(C)Cc2ccc(C(F)(F)F)cc2)o1	15.47
COC(=O)CNC(=O)c1c(-n2cnnn2)sc2c1CCCC2	17
COc1ccccc1-c1cc(C(=O)N2CCCC2)c2cnn(C)c2n1	6.857
COc1cccc(-c2nc(C)c(C(=O)NC(CO)CCSC)s2)c1 (configuration not stated)	16.18
CN1CC(C)(C)CN(C(=O)CCc2ccccc2)CC1=O	13.97
COc1cccc(S(=O)(=O)CCN2CCN(CCO)CC2)c1	16.43
CCn1cc(S(=O)(=O)N2CCCSc3ccccc32)cn1	15.88
OC(c1ccccn1)C1CCN(Cc2cc3n(n2)CCNC3)CC1 (configuration not stated)	0.2874
Cn1nc(C2CCCN2)c2c(C(=O)NC3CC3)cc(C3CC3)nc21 (configuration not stated)	5.714
CCCc1cc(C(=O)N2CCC3(CCCN(CCO)C3=O)C2)cs1 (configuration not stated)	-2.74
O=C(CO[C@@H]1CC[C@H]2[C@H]1OCCN2CC1CCOCC1)N1CCCC1	16.19
CCN(Cc1c(F)cccc1F)Cn1nc(C)c2c(C)onc2c1=O	11.4
COc1cccc(CN2CC[C@H]3[C@@H](C2)[C@H](c2ccsc2)CN3C(C)=O)c1	3.155
COc1ccc(CN(C(=O)C(C)SC)c2cnn(C)c2)c(OC)c1 (configuration not stated)	11.14
CC(C)CC(=O)Nc1ccccc1Oc1ccsc1C(=O)O	17.25
Cn1cc(N2C[C@@H]3CN(Cc4ccoc4)C[C@@H]3C2=O)cn1	3.763
CN(C)CCN1CCOCC2(CCCN(C(=O)c3ccoc3)C2)C1 (configuration not stated)	11.11
COCC1CN(Cc2cnn(C)c2)Cc2nn(C)cc21 (configuration not stated)	7.843
CC(C)(C)c1nc(NS(=O)(=O)c2cccc(F)c2)no1	12.11
CCc1ccc(NS(=O)(=O)CC2=NC(=O)n3cccc3C2=O)cc1	4.564
O=C(CN1CCCCC1C1OCCO1)Nc1ccc(F)c(F)c1 (configuration not stated)	19.05
COCc1ccc(C(=O)N2CCN(CCS(C)(=O)=O)CC2)cc1	8.042
O=C(CN1CCc2ccccc2C1)NCc1ccco1	-0.2688
Cc1cc(=O)[nH]cc1C(=O)N1CCN(C)c2ccccc2C1	19.63
CC(C)(C)c1nc(CN2CCc3onc(-c4cccc(F)c4)c3C2)no1	12.28
Cc1cccc2c1nc(CCO)n2-c1ccc(NS(C)(=O)=O)nc1	9.804
CC(Cc1ccco1)NC(=O)Nc1cccnc1 (configuration not stated)	-7.895
O=C(c1ccc(NC2CC2)nc1)N1CCCC(n2cccn2)C1 (configuration not stated)	8.163
Cc1cnn(CC(C)NCc2nc(-c3cccs3)no2)c1 (configuration not stated)	8.571
Cc1ccc(C2CN(Cc3cnc(-c4cccnc4)s3)CCO2)o1 (configuration not stated)	4.27
Cc1cnc(C(=O)N2CC[C@H]3[C@@H]2CCC(=O)N3c2cccnc2)cn1	11.54
O=C(C1CCCC1)N1CCC(c2ncc3c(n2)CCNC3)C1 (configuration not stated)	18.77

The first 7 entries again:

Cc1cccc(C(=O)N2CCCCC2c2nc(C)cs2)n1 (configuration not stated) read 15.91%.
CC(C)(O)CSCCNCc1ccc(Cl)c2cccnc12 read -25.64%.
Cn1cnc2c1C(COCc1ccccc1)N(Cc1cccnc1)CC2 (configuration not stated) read 12.05%.
N#CCC(=O)NCc1nnc2n1CCN(Cc1ccco1)C2 read 5.797%.
Cc1noc(C)c1CN1C(=O)[C@H]2CC[C@@H]1CN(Cc1nccs1)C2 read 14.61%.
O=C(COc1ccccc1)NCC1CC1 read -0.7752%.
CCN(C)CC1CCN(C(=O)Nc2ccc(-c3cc[nH]n3)cc2)C1 (configuration not stated) read 0.2762%.

From ChEMBL document CHEMBL3988442, “University of Dundee, Small-Polar-MMV Screening Library” (2021).